Measured values published in publication PMC7819943, “Rice protein-binding microarrays: a tool to detect cis-acting elements near promoter regions in rice”.
Some of the results follow.

target: T1, OsSMF1 (Oryza sativa, UniProt Q6ZLB0 1-436); test: protein-binding microarray (RPBM); PBS, 2% BSA, 51.3 ng/ul salmon testes DNA, 50 uM zinc acetate, 200 nM TF, 25 C, 1 h; high values mean tight binding; details: protein: recombinant; tags: N-terminal polyhistidine and DsRed monomer fusion (pET32a); chain copies: 2; label: CyDye5-dUTP incorporated in the synthesized complementary strand; 3' TTTTT single-stranded linker to array surface; dsDNA, one strand shown
T1 sequence: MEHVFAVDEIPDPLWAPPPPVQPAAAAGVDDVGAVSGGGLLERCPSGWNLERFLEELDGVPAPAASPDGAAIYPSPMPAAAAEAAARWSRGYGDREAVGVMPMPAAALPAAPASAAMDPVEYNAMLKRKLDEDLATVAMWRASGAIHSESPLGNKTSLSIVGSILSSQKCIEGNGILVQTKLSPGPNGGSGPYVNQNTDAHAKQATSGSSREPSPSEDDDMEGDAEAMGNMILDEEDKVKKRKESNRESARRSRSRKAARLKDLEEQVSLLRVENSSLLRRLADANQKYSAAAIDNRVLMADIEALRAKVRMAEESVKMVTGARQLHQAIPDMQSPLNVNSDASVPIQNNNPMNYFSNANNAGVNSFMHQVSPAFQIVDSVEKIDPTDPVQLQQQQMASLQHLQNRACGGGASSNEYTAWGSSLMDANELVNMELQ
How it was run: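 Transcription factors were made in E. coli BL21-CodonPlus as N-terminal fusions to a polyhistidine tag and DsRed, then purified on Ni–NTA. After primer extension with Cy5-dUTP and blocking with 2% BSA, a custom Agilent array was exposed for 1 h at 25 °C to 200 nM protein in PBS, 2% BSA, salmon testes DNA and 50 µM zinc acetate. Washed arrays were scanned on an Axon 4000B, and the binding signal is per-feature fluorescence intensity in arbitrary units.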

For “AAGAGGGGAAAAGAACGCTATCTTCACGGGAGGCAGTTCCCGGAGTCACCTAGTGCAG”, which binding signal is on record?
The binding signal was 3300 fluorescence intensity (a.u.).

“GACGCAAACGCAACCCATTGGCTCTTGGCAAATGCAACAGCGGAGTCACCTAGTGCAG” was tested. Which binding signal did it give?
The binding signal was 22300 fluorescence intensity (a.u.).

With “CCGACCGCCACGGCGACTCGTCTCCCCACTCCACGTGGGCCGGAGTCACCTAGTGCAG” as the sequence, how does the binding signal read?
The binding signal was 6720 fluorescence intensity (a.u.).

Which binding signal does the source give for “TCCTCCACTCACTTTCATGTACAGCTCACTTTCTTGGCCTCGGAGTCACCTAGTGCAG” here?
Its binding signal is 4100 fluorescence intensity (a.u.).

With “CAAGCAGTTGGCTTAACTCAACCACGTGTGCGGCCACCTTCGGAGTCACCTAGTGCAG” as the sequence, how does the binding signal read?
Its binding signal is 5590 fluorescence intensity (a.u.).

Which binding signal does the source give for “TTCCGAGTTCCGACCCGCGCCGCCACGCCACGCTACATCCCGGAGTCACCTAGTGCAG” here?
Its binding signal is 4680 fluorescence intensity (a.u.).

“CACATCACATCACATGCCGGCCCGGCTCGCCATTGATCACCGGAGTCACCTAGTGCAG” was tested. Which binding signal did it give?
Its binding signal is 3340 fluorescence intensity (a.u.).

For “CACGCGATTCACAATTAGAAAAGGCTTGACCTGGCCTTCGCGGAGTCACCTAGTGCAG”, which binding signal is on record?
The binding signal was 3560 fluorescence intensity (a.u.).

How did the binding signal turn out when “CCTACACCTCGAGCAAGTTTCCTATAATTGAGGCAGATTACGGAGTCACCTAGTGCAG” was run?
Its binding signal is 23100 fluorescence intensity (a.u.).

Which binding signal does the source give for “TTGGAGTTGTACTAGGTGTTATGACTAGAGTAAGAGTCAGCGGAGTCACCTAGTGCAG” here?
Its binding signal is 3520 fluorescence intensity (a.u.).

“TTTTAAGTCTAATTGCGCCATGATTTAATAATGTGGTGCTCGGAGTCACCTAGTGCAG” was tested. Which binding signal did it give?
Its binding signal is 3670 fluorescence intensity (a.u.).

With “ACACATGTCAGATTAATTGATCGCGTGTGCGTGTCTATATCGGAGTCACCTAGTGCAG” as the sequence, how does the binding signal read?
Its binding signal is 3180 fluorescence intensity (a.u.).

With “CAACAACTCCCCATCAGCATTGCGAAATGCGAACCAGAGCCGGAGTCACCTAGTGCAG” as the sequence, how does the binding signal read?
The binding signal was 10200 fluorescence intensity (a.u.).

For “GTAGAGTTTGCGTGCGTGTCAGCGTGTGTTTATAGGAGTGCGGAGTCACCTAGTGCAG”, which binding signal is on record?
Its binding signal is 7300 fluorescence intensity (a.u.).

“AATCCCCGCACTCCCACTCGTTCGAGCTCCACCAACAACTCGGAGTCACCTAGTGCAG” was tested. Which binding signal did it give?
Its binding signal is 4670 fluorescence intensity (a.u.).

“CATTTAGCCCTGTCAACCATTTGTACAGGCTTTTGTCATACGGAGTCACCTAGTGCAG” was tested. Which binding signal did it give?
The binding signal was 4220 fluorescence intensity (a.u.).

Which binding signal does the source give for “TTCTCTCTCCCGGACATCGAACACGATAAGCTTGAAGTCACGGAGTCACCTAGTGCAG” here?
The binding signal was 35000 fluorescence intensity (a.u.).

How did the binding signal turn out when “TAGTAACTGATGTGTGTGTGTGTGCAGTCTCCGTGCGTGTCGGAGTCACCTAGTGCAG” was run?
The binding signal was 4790 fluorescence intensity (a.u.).

Which binding signal does the source give for “CACCGACGCCACCTCACCCGAAGCCGGCCGGAGTGGTCCGCGGAGTCACCTAGTGCAG” here?
The binding signal was 6140 fluorescence intensity (a.u.).

“CTTTTCCCCGACTAAACACACCCATACTGTCAAAAGGTAACGGAGTCACCTAGTGCAG” was tested. Which binding signal did it give?
Its binding signal is 26800 fluorescence intensity (a.u.).

Which binding signal does the source give for “AAGCGCAAATGCCGTCACGCCAAATAACCTCACATAGCCCCGGAGTCACCTAGTGCAG” here?
Its binding signal is 3630 fluorescence intensity (a.u.).

“TCATACATGTGTTCAAACATTCGATGTGACACGGTGTAAACGGAGTCACCTAGTGCAG” was tested. Which binding signal did it give?
The binding signal was 3210 fluorescence intensity (a.u.).

“GAAGTCGACCATGGTCAAAACCTGCCACATCAGTAGAAATCGGAGTCACCTAGTGCAG” was tested. Which binding signal did it give?
The binding signal was 4960 fluorescence intensity (a.u.).

How did the binding signal turn out when “CTGGCTACCGTGCGGCCACCTGTACCACTCTAATTCCCTTCGGAGTCACCTAGTGCAG” was run?
The binding signal was 3950 fluorescence intensity (a.u.).

Which binding signal does the source give for “CCATTGCTTGATGATGCCATCCATGAGTCAGCCGCATGTACGGAGTCACCTAGTGCAG” here?
Its binding signal is 11100 fluorescence intensity (a.u.).

With “TCTGTATATCCGTACTACGAGATTTGGTCAAAAGTTGAAACGGAGTCACCTAGTGCAG” as the sequence, how does the binding signal read?
The binding signal was 22200 fluorescence intensity (a.u.).

“GTCCTCCTCCCCTGCGACGACGGCGGCGGCGGCGGCGGTGCGGAGTCACCTAGTGCAG” was tested. Which binding signal did it give?
The binding signal was 3220 fluorescence intensity (a.u.).

“CCACGCGCTCTATAAGTAGACGGCTCTTCGGCGCGTGTCACGGAGTCACCTAGTGCAG” was tested. Which binding signal did it give?
Its binding signal is 3400 fluorescence intensity (a.u.).

How did the binding signal turn out when “CCCGCGCGACGTCAGCAAGGCGTTGGCCGGCGTGGTACTGCGGAGTCACCTAGTGCAG” was run?
Its binding signal is 8080 fluorescence intensity (a.u.).

“AGTGTTATGTTTGAGTTATACACGTGCAAGTTTTGTGATTCGGAGTCACCTAGTGCAG” was tested. Which binding signal did it give?
Its binding signal is 4040 fluorescence intensity (a.u.).

How did the binding signal turn out when “AGCTGGCGGCTGGCGGGTGGTGGTGGTGGCTGGCGGCGGGCGGAGTCACCTAGTGCAG” was run?
The binding signal was 4500 fluorescence intensity (a.u.).

Which binding signal does the source give for “GACGTCGTCATCGACGTCATCGGTGTAGTCCAGTTCGGCGCGGAGTCACCTAGTGCAG” here?
Its binding signal is 10400 fluorescence intensity (a.u.).

How did the binding signal turn out when “TTTAAGTTTGGTTTTGGCGTCTTATGTGTAATGTAATCAACGGAGTCACCTAGTGCAG” was run?
The binding signal was 4120 fluorescence intensity (a.u.).

For “GAGCTCCGCCAGTACGAGTACAGACCCAGCTTCGCCGGCGCGGAGTCACCTAGTGCAG”, which binding signal is on record?
The binding signal was 3580 fluorescence intensity (a.u.).

With “ACCGCCGGTCCACTCACCCCTAACCCTAGCCGCTGCCGCCCGGAGTCACCTAGTGCAG” as the sequence, how does the binding signal read?
Its binding signal is 4020 fluorescence intensity (a.u.).

“CACAACTGCACGTATTGCGTCGCCAATGTCATCGCTAACTCGGAGTCACCTAGTGCAG” was tested. Which binding signal did it give?
Its binding signal is 4190 fluorescence intensity (a.u.).

“GTAGTCCTGGTGACTGGTCAAAGTGATGTGTGCATAATCTCGGAGTCACCTAGTGCAG” was tested. Which binding signal did it give?
The binding signal was 5300 fluorescence intensity (a.u.).

How did the binding signal turn out when “GTTGCCCACGTCCACCCAATCCTCCTCCATCCACGGCGGCCGGAGTCACCTAGTGCAG” was run?
Its binding signal is 3700 fluorescence intensity (a.u.).

Which binding signal does the source give for “TTTATCAAATATTTTGTTCCAAAGCTTACATAAGCATATGCGGAGTCACCTAGTGCAG” here?
Its binding signal is 3320 fluorescence intensity (a.u.).

Which binding signal does the source give for “GGCGGCGAGGAGAGTCGCAACGACAGGTCATGGGTGCGGACGGAGTCACCTAGTGCAG” here?
The binding signal was 3790 fluorescence intensity (a.u.).

“ACCCTGGCTGAATGGTTTAACTCCAGCTGGCAGGCTGGTGCGGAGTCACCTAGTGCAG” was tested. Which binding signal did it give?
Its binding signal is 4370 fluorescence intensity (a.u.).

Which binding signal does the source give for “TGTGTTCTCAATTTTGCGTGTTCTCAATGACACGTGAACACGGAGTCACCTAGTGCAG” here?
Its binding signal is 5630 fluorescence intensity (a.u.).

Which binding signal does the source give for “AAAATAGACATCCTGAAACACGTAGTCGCCGTGGCCGTGGCGGAGTCACCTAGTGCAG” here?
The binding signal was 3710 fluorescence intensity (a.u.).

Which binding signal does the source give for “CTCGTGAGTCGTGAGACACTGAGGCCGGCCGGCGTACGTGCGGAGTCACCTAGTGCAG” here?
The binding signal was 3340 fluorescence intensity (a.u.).

For “TACTAACACCCACCCGGCCGTGCCGCTGCCGCCGTGTGCCCGGAGTCACCTAGTGCAG”, which binding signal is on record?
Its binding signal is 3580 fluorescence intensity (a.u.).

How did the binding signal turn out when “AGCTGTCACCGATTACACGTAGCCGAATTCCTTCCCTGTGCGGAGTCACCTAGTGCAG” was run?
The binding signal was 7890 fluorescence intensity (a.u.).

How did the binding signal turn out when “TTGGAATGCTGAAATTATTAGGGGACTATTCAAATTGATGCGGAGTCACCTAGTGCAG” was run?
Its binding signal is 39200 fluorescence intensity (a.u.).

Which binding signal does the source give for “CACTCCCGTCCTGAGGCCATCGACGCTTCCCATATAATTTCGGAGTCACCTAGTGCAG” here?
Its binding signal is 4070 fluorescence intensity (a.u.).

For “ACCCCTGCGAATATATAATTTCCCCGCGAGGCCGCGAGCCCGGAGTCACCTAGTGCAG”, which binding signal is on record?
The binding signal was 47700 fluorescence intensity (a.u.).

“AGATTATGCACATGTCATTGACTCATTCTGAAAGCAAATTCGGAGTCACCTAGTGCAG” was tested. Which binding signal did it give?
The binding signal was 3660 fluorescence intensity (a.u.).

With “TGGCTGTTAAAAGGCCGACTGACGGAGGTCCAACCCTATGCGGAGTCACCTAGTGCAG” as the sequence, how does the binding signal read?
Its binding signal is 3300 fluorescence intensity (a.u.).

Which binding signal does the source give for “TGACTCTGCCGTGTGAGTGCTGACGCAATCAAGATCCAACCGGAGTCACCTAGTGCAG” here?
Its binding signal is 6980 fluorescence intensity (a.u.).

Which binding signal does the source give for “AGCTAATGAGCTAAACGCCCAGTCATTCAACACCGACCATCGGAGTCACCTAGTGCAG” here?
The binding signal was 4740 fluorescence intensity (a.u.).

“ACTGCTGCTATGGAAGCCTGTGACTCAGTTTGTGATATTCCGGAGTCACCTAGTGCAG” was tested. Which binding signal did it give?
The binding signal was 6680 fluorescence intensity (a.u.).
